Measurements reported in PubChem BioAssay AID686937 (Drosophila RNAi Screening Center, 2013)
In all, the deposit lists about 23,000 reagents; this is a random part of those that have a named target and a result. 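Reduced-secretion tags in replicate 1 do not always agree with the z-scores; no criterion for assigning the tags was given.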 Further read-outs or replicates are left out here. Not given: the amount of reagent.

Purpose: 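Genes in the fly needed for secretion of protein constitutively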 (primary screen)
Cell system: Drosophila S2 cells expressing secreted horseradish peroxidase
Knock-down reagent: long dsRNA against Drosophila genes
Time to read-out: about 5.5 days (5 days dsRNA, then 12 h reporter induction)
Challenge: reporter expression induced after 5 days of dsRNA, read 12 h later; inducer not stated
Detection: 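Chemiluminescent measurement of peroxidase in the medium 12 h after reporter induction, following 5 days of dsRNA, given as a z-score per plate; higher means more secretion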
Direction: z-score: higher = more reporter secreted into medium

puc (GeneID 40958) [DRSC17034] — z-score, replicate 1 = -2.11; phenotype, replicate 1 = reduced secretion
GatB (GeneID 42861) [DRSC15807] — z-score, replicate 1 = 0.4
Vha16-2 (GeneID 39282) [DRSC10873] — z-score, replicate 1 = 0.39
CG32115 (GeneID 317862) [DRSC22607] — z-score, replicate 1 = 1.7
stum (GeneID 37473) [DRSC04268] — z-score, replicate 1 = 0.18
stum (GeneID 37473) [DRSC04270] — z-score, replicate 1 = 0.22
cib (GeneID 31359) [DRSC18660] — z-score, replicate 1 = 0.39
Schip1 (GeneID 34393) [DRSC02851] — z-score, replicate 1 = 0.26
mTTF (GeneID 34837) [DRSC01909] — z-score, replicate 1 = -0.04
Atg8b (GeneID 42132) [DRSC14501] — z-score, replicate 1 = 0.2
mRpL49 (GeneID 32242) [DRSC19908] — z-score, replicate 1 = 0.18
CG9121 (GeneID 33732) [DRSC03142] — z-score, replicate 1 = 0.22
CG7791 (GeneID 35511) [DRSC04891] — z-score, replicate 1 = 0.19
CG11593 (GeneID 38477) [DRSC08206] — z-score, replicate 1 = 0.41
CG31050 (GeneID 318571) [DRSC13883] — z-score, replicate 1 = -0.34
NTPase (GeneID 33495) [DRSC00761] — z-score, replicate 1 = 0.21
CG14669 (GeneID 40652) [DRSC12065] — z-score, replicate 1 = -4.26; phenotype, replicate 1 = reduced secretion
CG14669 (GeneID 40652) [DRSC12067] — z-score, replicate 1 = 0.31
CG14669 (GeneID 40652) [DRSC12068] — z-score, replicate 1 = 0.73
CG14669 (GeneID 40652) [DRSC12255] — z-score, replicate 1 = -0.24
CG1738 (GeneID 32075) [DRSC19772] — z-score, replicate 1 = 0.6
Ack (GeneID 38489) [DRSC08135] — z-score, replicate 1 = 0.29
Uba2 (GeneID 44496) [DRSC11311] — z-score, replicate 1 = 0.32
Fer1 (GeneID 2768661) [DRSC12507] — z-score, replicate 1 = 0.53
Fer1 (GeneID 2768661) [DRSC12555] — z-score, replicate 1 = -0.1
stet (GeneID 38169) [DRSC08246] — z-score, replicate 1 = 0.16
stet (GeneID 38169) [DRSC08283] — z-score, replicate 1 = -3.15; phenotype, replicate 1 = reduced secretion
Dpp10 (GeneID 33923) [DRSC00942] — z-score, replicate 1 = -0.79
Dpp10 (GeneID 33923) [DRSC02139] — z-score, replicate 1 = -0.15
CG7148 (GeneID 40432) [DRSC11802] — z-score, replicate 1 = 0.57
Mad (GeneID 33529) [DRSC00759] — z-score, replicate 1 = -0.02
CG1418 (GeneID 36035) [DRSC06447] — z-score, replicate 1 = 0.11
CG8230 (GeneID 35897) [DRSC05931] — z-score, replicate 1 = 0.19
HERC2 (GeneID 33035) [DRSC20566] — z-score, replicate 1 = 0.49
Fmr1 (GeneID 37528) [DRSC16674] — z-score, replicate 1 = 0.55
CG31522 (GeneID 40567) [DRSC12005] — z-score, replicate 1 = 0.36
eRF3 (GeneID 34658) [DRSC03322] — z-score, replicate 1 = -0.68
Tektin-C (GeneID 38653) [DRSC09741] — z-score, replicate 1 = -2.83; phenotype, replicate 1 = reduced secretion
Fign (GeneID 33544) [DRSC00592] — z-score, replicate 1 = 0.58
CG9886 (GeneID 33431) [DRSC00732] — z-score, replicate 1 = 0.45
CG7406 (GeneID 32892) [DRSC20042] — z-score, replicate 1 = 0.33
mRpL10 (GeneID 33182) [DRSC00312] — z-score, replicate 1 = 0.4
CG2608 (GeneID 35323) [DRSC02709] — z-score, replicate 1 = 0.32
Archease (GeneID 42551) [DRSC16025] — z-score, replicate 1 = 0.49
CG9849 (GeneID 37647) [DRSC04573] — z-score, replicate 1 = 0.54
MICAL-like (GeneID 39475) [DRSC09829] — z-score, replicate 1 = 0.32
wash (GeneID 36311) [DRSC06302] — z-score, replicate 1 = 0.34
nrm (GeneID 40515) [DRSC11597] — z-score, replicate 1 = 0.5
nrm (GeneID 40515) [DRSC11599] — z-score, replicate 1 = 0.34
nrm (GeneID 40515) [DRSC11897] — z-score, replicate 1 = 0.13
Spt3 (GeneID 41461) [DRSC15465] — z-score, replicate 1 = 0.14

Just “z-score, replicate 1” (7 entries from above):
Fer1 (GeneID 2768661) [DRSC12507] = 0.53
Fer1 (GeneID 2768661) [DRSC12555] = -0.1
stet (GeneID 38169) [DRSC08246] = 0.16
stet (GeneID 38169) [DRSC08283] = -3.15
Dpp10 (GeneID 33923) [DRSC00942] = -0.79
Dpp10 (GeneID 33923) [DRSC02139] = -0.15
CG7148 (GeneID 40432) [DRSC11802] = 0.57
